# Source: PubChem BioAssay AID1347076 (National Center for Advancing Translational Sciences (NCATS), 2019)
# The whole screen tested about 400,000 compounds, of which about 13,000 (3.2%) were called active. This list was built around the results that the source calls inconclusive (neither active nor inactive); the mix of calls is not that of the screen. The call rests on the fitted dose curve; in most records, active means well fitted cell-killing curve with a large enough effect; inconclusive means small, poorly fitted or top-dose-only effect, or effect the other way; inactive means flat fitted curve, though single readings scatter. Where the call is inconclusive, the potency comes from a doubtful curve fit.
# Experiment: qHTS assay for MDR1-selective chemotherapeutics: Primary screen using the drug-selected MDR subline cells KB-V1; further: nearly all actives have a fitted effect of over 60% in size
# Settings: KB-V1 MDR cells viability, CellTiter-Glo, 72 h; activity change, negative = cytotoxicity: at 46.1 µM (top of the series)
# In short: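 Luminescent ATP read-out (CellTiter-Glo, 10 min) measures survival of drug-selected KB-V1 MDR cells after 72 h, 37 degrees C compound exposure. Medium: phenol-red-free DMEM, 10% FBS. Values from fitted concentration-response curves.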
# On the % scale 0 is the no-effect control and ±100 the full control effect; potency means the concentration at half of the fitted maximal effect.
Compound,Potency,"activity change, negative = cytotoxicity"
COc1ccc(C(=O)c2[nH]c(N)c(C(=O)NCCc3c[nH]c4ccccc34)c2-c2ccc(Br)cc2)cc1,"inconclusive: 29.1 µM [cytotoxic, single point]",
Cc1ccc(N2C(=O)C3C4C=CC(CNC(=S)N5CCN(c6cccc(C)c6)C(C)C5)(O4)C3C2=O)cc1 (configuration not stated),"inconclusive: 32.6 µM [cytotoxic, single point]",
COc1ccc(S(=O)(=O)N2CCCCCC2)cc1NC(=O)CN1C(=O)NC(C)(c2ccccc2)C1=O (configuration not stated),inactive,
CN(C)C(=O)CCc1ccc2c3c([nH]c2c1)[C@]1(CCc2ccccc2)[C@@H](C(=O)N2CCCCC2)C[C@H](CC(=O)NCc2ccco2)C(=O)N1CC3,inactive,
Cc1ccnc2nc(C(=O)Nc3nnc(-c4ccccc4)o3)nn12,"inconclusive: 29.1 µM [rising, single point]",
CC1(C)Cc2c(cnn2-c2ccc(F)cc2)C(NC(=O)C2=NNC(=O)CC2)C1 (configuration not stated),inactive,
S=C(Nc1ccc2nc(-c3ccccn3)c(-c3ccccn3)nc2c1)N1CCCCC1,inactive,
O=C(CC1C(=O)NCCN1Cc1ccc(-c2ccccc2)cc1)NCCOc1cccnc1 (configuration not stated),"inconclusive: 29.1 µM [rising, single point]",
Cc1c(C(=O)c2ccccc2)c2ccccn2c1CCc1ccccn1,"inconclusive: 18.4 µM [cytotoxic, single point]",
COCCNc1nc2cc(-c3ccc(C)cc3)sc2c(=O)n1C,"inconclusive: 20.6 µM [cytotoxic, single point]",
CCOc1ccc(NC(c2ccccn2)c2oc(CO)cc(=O)c2O)cc1 (configuration not stated),"inconclusive: 3.66 µM [rising, full curve]",
O=C(COC(=O)CNS(=O)(=O)c1ccc(Br)cc1Cl)NC1CCCC1,inactive,
COCC(C)NC(=O)c1ccc2nc(-c3ccccc3)c(-c3ccccc3)nc2c1 (configuration not stated),"inconclusive: 0.517 µM [cytotoxic, full curve]",
COc1cc(C(C)=O)ccc1OCC(O)CN1CCN(c2ccc(C)cc2C)CC1 (configuration not stated),"inconclusive: 5.17 µM [cytotoxic, partial curve, poor fit]",
O=C(NC(=S)NCCN1CCOCC1)c1ccccc1Br,inactive,
COc1ccc(CC(NC(C)=O)C(=O)NC2CCN(c3c(Cc4ccccc4)c(C)nc4ncnn34)CC2)c(OC)c1 (configuration not stated),"inconclusive: 18.4 µM [rising, single point]",
COc1ccc(/C=C2/SC(=O)N(CC(=O)NCCC(C)C)C2=O)cc1OC,"inconclusive: 18.4 µM [cytotoxic, partial curve, poor fit]",
COc1ccc(CNC(=O)C2CCCN(C(=O)c3cnn(-c4ccc(F)cc4)c3-n3cccc3)C2)cc1 (configuration not stated),active: 13 µM,
CCOc1ccccc1NC(=O)COC(=O)C(CC(C)C)N1C(=O)C2CC=CCC2C1=O (configuration not stated),"inconclusive: 23.1 µM [cytotoxic, partial curve, poor fit]",
CCCNS(=O)(=O)c1ccc(CCC(=O)N2CCOCC2)cc1,inactive,
COc1ccc(CCNC(=O)C2CC(=O)N(c3ccc(F)cc3)C2)cc1OC (configuration not stated),"inconclusive: 10.3 µM [cytotoxic, partial curve, poor fit]",

# In a second layout: results already given
Compound	Potency	activity change, negative = cytotoxicity
O=C(NC(=S)NCCN1CCOCC1)c1ccccc1Br	inactive	
COc1ccc(/C=C2/SC(=O)N(CC(=O)NCCC(C)C)C2=O)cc1OC	inconclusive: 18.4 µM [cytotoxic, partial curve, poor fit]	

# Next results

Compound,Potency,"activity change, negative = cytotoxicity"
CN(C)CCCNc1c2c(nc3ccccc13)CCC2,inactive,
Cc1ccccc1NC(=O)C(NS(=O)(=O)c1ccc2c(c1)c(=O)n(C)c(=O)n2C)c1ccccc1 (configuration not stated),"inconclusive: 32.6 µM [rising, single point]",
CCOc1ccc(NS(=O)(=O)c2ccc(Cl)c(N=Nc3c(O)[nH]c(=S)[nH]c3=O)c2)cc1Br,"inconclusive: 29.1 µM [rising, single point]",
CSCC[C@H](NC(=O)C1CCN(C(=O)[C@H](Cc2ccccc2)NS(=O)(=O)c2ccc(C)cc2)CC1)C(=O)O,"inconclusive: 23.1 µM [rising, partial curve, poor fit]",
C=CCN=C(NC#N)SCC(=O)c1cccc(OC)c1,"inconclusive: 23.1 µM [cytotoxic, single point]",
CC(=O)n1cc([C@H]2C=C(C(=O)N3CCN(Cc4ccccc4)CC3)O[C@@H](OCCCCO)C2)c2ccccc21,inactive,
COc1ccccc1CN(C)C(=O)c1cc(-c2cccs2)nc2ccccc12,"inconclusive: 16.4 µM [cytotoxic, partial curve, poor fit]",
Cc1cccc(C)c1Cn1c(C)c(C(=O)NCCC#N)sc1=O,"inconclusive: 10.3 µM [cytotoxic, partial curve, poor fit]",
O=c1c(Cc2ccccc2)c(O)ccn1Cc1ccc2c(c1)OCO2,inactive,
Cc1cccc(C(=O)Nc2ccc(C(=O)c3ccccc3)cc2)c1,inactive,
CCOc1ccc(NC(=S)Nc2cccc3cnccc23)cc1,active: 14.6 µM,
COC(=O)[C@@]12C[C@@H](CC(=O)NCCC(C)C)C(=O)N(CCc3ccc(OC)c(OC)c3)C1=CCC(C)(C)C2,"inconclusive: 5.8 µM [cytotoxic, partial curve]",
CCCN1C/C(=C/c2cccc([N+](=O)[O-])c2)C(=O)/C(=C/c2cccc([N+](=O)[O-])c2)C1,"inconclusive: 1.46 µM [cytotoxic, partial curve, poor fit]",
COc1ccc(C2CC(c3ccccc3)=NN2c2ccc(N)cc2)cc1 (configuration not stated),active: 20.6 µM,
COc1cccc(CNC2CCCc3ccccc32)c1OC (configuration not stated),"inconclusive: 2.06 µM [cytotoxic, full curve, poor fit]",
CCc1ccc(NC2CC(=O)N(CCc3ccc(OC)c(OC)c3)C2=O)cc1 (configuration not stated),,inconclusive: -33.5% [cytotoxic]
Cc1nn(-c2ccccn2)c2c1C(c1ccsc1)C1=C(CCCC1=O)N2 (configuration not stated),active: 3.66 µM,
Cc1ccc(NC(=O)OCc2cn(-c3ccc(Cl)cc3)nn2)cc1,"inconclusive: 29.1 µM [cytotoxic, single point]",
Cc1ccc(OCCOC(=O)c2c(-c3ccccc3)noc2C)cc1,"inconclusive: 18.4 µM [cytotoxic, single point]",
COc1ncccc1C(=O)NC1CCCc2c1cnn2-c1cc(C)cc(C)c1 (configuration not stated),inactive,
COc1ccc(OCCCC(=O)Nc2nc(C)c(C(C)=O)s2)cc1,"inconclusive: 16.4 µM [cytotoxic, single point]",
